In the RNAGym collection of RNA variant scans (doi:10.1126/science.aae0568):
Variants at the background level are over-represented here.

B1: tRNA (parent)
chain: GUUCCGUUGGCGUAAUGGUAACGCGUCUCCCUCCUAAGGAGAAGACUGCGGGUUCGAGUCCCGUACGGAACG

Variants of: B1
Assay: yeast fitness relative to wild type (ratio to wild type); higher = fitter; tRNA-Arg(CCU), competitive growth, 37 C, YPD
Method in brief: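 A pool of Saccharomyces cerevisiae strains, each with a tRNA-Arg(CCU) gene variant at the native genomic locus, was competed in YPD at 37°C for 24 hours across six parallel replicates. The variants had been chemically synthesised at a 3% per-site mutation rate over 69 sites, and gene amplicons before and after competition were read by 100-nucleotide paired-end sequencing. Darwinian fitness relative to wild type rested on changes in genotype frequencies. Genotypes required ≥ 100 starting reads, and estimates < 0.5 were set to 0.5.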

| Variant | yeast fitness |
| --- | --- |
| GGUCGGUUGGCGUAAUGGUAACGCGUCUCCCUCGUAAGGAGAAGACUGGGGGUUCGAGUCCCGUACGGAACG [U2G C5G C34G C49G] | 0.505 |
| GUUCCGUUGGUGUAAUGGUACCGCGUCUCCCUCCUAAGGAGGAGACUGCGGGUUCGAAUCCCGUACGGCGCG [C11U A21C A42G G58A A69C A70G] | ≤ 0.5 |
| GUUCCGUUGGCGUAGUGGUAACGCGUCUCCGUCCUAAGGAGAAGACUGCGGGUUCGAGUCCCGUACGGAACG [A15G C31G] | 0.852 |
| GAUCCCUUGGCGUAACGGUAACGUGUCUCCCUCCUAAGGAGAAGACUGCGGGUUCGAGUCCCGUACGAAACG [U2A G6C U16C C24U G68A] | ≤ 0.5 |
| GUUCAGUUGGCGUAAUGGUCACGCGUCUCCCUCCUAGGGAGAAGACUGGGGGAUCGAGUUCCGUACGGCACG [C5A A20C A37G C49G U53A C60U A69C] | ≤ 0.5 |
| GUUCUGUUGGCGUAAUGAUAACGCGUCUCCCUCCUAAGGUGAAGACCGCGGGUUCGAGUCCCGUACGGAACG [C5U G18A A40U U47C] | 0.501 |
| GUUCCGUUGGCGUAAUGGUAGCGCGUCUCCCUCCUAAGGAGAAGACUGCGGGUUCGAGCCCCGUACGGAACG [A21G U59C] | 0.883 |
| GUUCCGUUGGCGUGAUGGUAACGCGUCUCCUUCCUAAGGAGAAGACUGGGGGUUCGGGUCCCGUACGGAACG [A14G C31U C49G A57G] | ≤ 0.5 |
| GUUCCGUUGGCGUAAUGGGAAUGCGUCUCCUUCCUAAGGUGAAGACUGCUGGUUCGAGUCCCGUACAGAACG [U19G C22U C31U A40U G50U G67A] | ≤ 0.5 |
| GUUCCGUUGGCGUAAUGGUAACGCGUCUCCCUCCUAAGGAGAAGACUGCGCGUUCGAGUCUCGUACGGAACG [G51C C61U] | 0.604 |
| GUUCCGUUGGCAUAAAGGUAGCGCGUGUCCCUCCUAAGGAGAAGAUUGCGGGUUCGAGUCCCGUACGGAACG [G12A U16A A21G C27G C46U] | ≤ 0.5 |
| GUUCCGAUGCCGUAAUGGUAAUGCGUCUCCCUCCUAAGGAGAAGACUGCGGGUUCGAGUCUCGUACGGAACG [U7A G10C C22U C61U] | ≤ 0.5 |
| GUUCCGUUGGCGUAAUGGUAACGCGUCUGUCACCUAAGGAGGAGACUGCGGGUUCGAGUCCCGUACGGAACG [C29G C30U U32A A42G] | ≤ 0.5 |
| GUUCCCUUGGCGUAAUGGUAACGGGCCUCCCUCCUAAGGAGAAGACUGCGGGUUCGAGUCCCGUACGGAACG [G6C C24G U26C] | ≤ 0.5 |
| GAUCCGUUGGCGUAAUGGUAACGCGUAUCCCUCCUAAGGAGAAGACUGGGGGUUCGAGUCCCGUACGGAACG [U2A C27A C49G] | ≤ 0.5 |
| GUUCCGUUGGGGUAAUGGUAACGCGUCUCCAUCCUAAGGAGAAGACUGCGGGUUCGAGUCCCGUACGGAACG [C11G C31A] | 0.508 |
| GUUCCGUUGGCGUCUUGGUAACGCGUCUCCCUCCUAAGGAGAAGACUGCGGGUUCGAGUCCGGUACGGAACG [A14C A15U C62G] | ≤ 0.5 |
| GUUCCGUUGGCGUAAUGGUAACGCGUCUUCCUCCUAAGGAGAAGACUGCGGGUUCGAGUCCCCUACGGAACG [C29U G63C] | 0.728 |
| GUUCCGUUGGCGUAAUGGUAACGCGUCGCCUUCCUAAGGAGAAGACUGCGGGUUCGAGUCCCGUACCGAACG [U28G C31U G67C] | ≤ 0.5 |

| Variant | yeast fitness |
| --- | --- |
| GUUCCGUUGGCGUAAUGGUAUCGCGUCUCCCCCCUAAGGAGAAGACUGUGGGUUCGCGUCCCGUACGGAACG [A21U U32C C49U A57C] | 0.595 |
| GUUCCGUUGGCGUUAUGGUAACGCGUCUCCCUCCUAAGGAGAAAACUGCGGGUUCGAGUCCCGUUCGGAACG [A14U G44A A65U] | ≤ 0.5 |
| GUUCCGUUGGCGUAAUGGUAACGCGUCUACCUCCUAGGGAGAAGACUGCGGGUUCGAGUCCCGAACAGAACG [C29A A37G U64A G67A] | ≤ 0.5 |
| GUUCCGUUGGCGUAAUGGUAACGCGUCUCCCUCCUAAGGAGAAGACUGCGGGUUCGGGUCCCGUACGGCACG [A57G A69C] | 0.799 |
| GUUCCGUUGGCGUAAUGGUCACGCGUCUCUCUCCUAGGGAGAAGACUGCGGGUUCGAGUCCCGUACGGAACG [A20C C30U A37G] | ≤ 0.5 |
| GUUCCGUUGGCGUAAUGGUAGCGCGUCACCCUCCUAAGGAGAAGACUGCGGGUUCGAGUCCCGUACGGAUCG [A21G U28A A70U] | ≤ 0.5 |
| GUCCGGUUGGCGUAAUGGGAACGCGUCUCCAUCCUAAGGAGAAGAAUGCGGGUUCGAGUCCCGUACGGAACG [U3C C5G U19G C31A C46A] | 0.663 |
| GUUCCGUUGGCGUAAUGGUAAUGCGUCGCCCACCUAAGGAGAAGACUGCGGGUACGAGUCCCGUACGGAACG [C22U U28G U32A U54A] | ≤ 0.5 |
| GUUUCGUUGGCGUAAUGGUAACGCGUCUCCCUCCUAAGGCGAAGACUGCGGGUUCGAGUCCUGUACGGAACG [C4U A40C C62U] | ≤ 0.5 |
| GUUCCGUUGGCGAAAUGGUAACACGUCUCCCUCCUCAAGAGAAGACUGCGGGUUCGAGUCCCGUACGGAACG [U13A G23A A36C G38A] | ≤ 0.5 |
| GUUCCGUUGGCGUAAUGGUAACGCGUCUCCCUCCUACGGAGACGCCUGCGGGUUCGAGUCCCGUACGGAACG [A37C A43C A45C] | ≤ 0.5 |
| GUUCCGUUGGCGGAAUGGUAACGCGUUUCCCUCCUAAGGAGAAAACUGCGGGUUCGUGUCCCGUACGGAACG [U13G C27U G44A A57U] | ≤ 0.5 |
| GUUCCGUUGGCGUAAUGGUAACGCGUCUCCCUCCUACGGAGAAGACUGCGGGUUCGAGUCCCGUACGGAGCG [A37C A70G] | 0.769 |
| GUUCCGUUGGCGUAAUGGUAACGCGUCUCCCUCUUAAGGAGAAGACUGCGGGUUUGAGUCCCGUACGGAACG [C34U C55U] | 0.569 |
| GUUCGGUUGAGGUAAGGGUAACGCGUCUCCCUGCUAAGGAGAAGACUGCGGGUUCCAGUCCCGUACGGAACG [C5G G10A C11G U16G C33G G56C] | ≤ 0.5 |
| GUUCCGUUGGCGUAAUGGUAACACGUCUCCCUCCUAAGGAGGAGACUGCGGGUUCGAGUCUCGUGCGGAACG [G23A A42G C61U A65G] | ≤ 0.5 |
| GUUCCGUUGGUGUAAUGGUAACGCGUCUCCCACCUAAGGAGAAGACUGCGGGUUCGAGUCCCAUACGGAACG [C11U U32A G63A] | ≤ 0.5 |
| GUUCCGUUGGCGUAAUGGUAACGUGUCUCACUCCUAGGGAGAAGACUGCGGGUUCGAGUCCCAUACGGUACG [C24U C30A A37G G63A A69U] | ≤ 0.5 |
| GUUCCGUUGGCGUUAUGGUAACGGGUCUCCAUCCUAAGGGGAACACUGCGGGUUCGAGUCCCGUACGGUACG [A14U C24G C31A A40G G44C A69U] | ≤ 0.5 |
